# Results from one PubChem assay

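A panel of P. falciparum strains inside erythrocytes is exposed to compounds for three days, then a DNA-binding dye reports the amount of parasite DNA.
Each compound was titrated across a series from about 0.000037 to 29 µM.
The number is the fitted AC50, the concentration giving a half-maximal change in signal; a lower value means higher potency, whether the curve shows a decrease or an increase.
Calls follow the curve class and fit quality: every row here is inconclusive, covering signal-raising curves and weak, poorly fitted, partial or highest-dose-only inhibition curves.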

Values are in µM.
Every entry below has the call inconclusive.
Only part of the assay is shown, chiefly results filed as inconclusive.
Potencies fitted to partial, single-point or poorly fitting curves are rough.

For COC(=O)C1=C(C)NC(C)=C(C(=O)OCC(C)C)C1c1ccccc1[N+](=O)[O-] (stereo not given) [JCK] the result was fitted potency 11.22 µM (inhibitor, single point).
For COC(=O)C1=C(C)NC(C)=C(C(=O)OCC(C)C)C1c1ccccc1[N+](=O)[O-] (stereo not given) [CP252] the result was fitted potency 17.78 µM (inhibitor, single point).
For COC(=O)C1=C(C)NC(C)=C(C(=O)OCC(C)C)C1c1ccccc1[N+](=O)[O-] (stereo not given) [CP265] the result was fitted potency 10 µM (inhibitor, single point).
For COC(=O)C1=C(C)NC(C)=C(C(=O)OCC(C)C)C1c1ccccc1[N+](=O)[O-] (stereo not given) [CP315] the result was fitted potency 19.01 µM (inhibitor, single point).
For COC(=O)C1=C(C)NC(C)=C(C(=O)OCC(C)C)C1c1ccccc1[N+](=O)[O-] (stereo not given) [CP305] the result was fitted potency 16.94 µM (inhibitor, single point).
For COC(=O)C1=C(C)NC(C)=C(C(=O)OCC(C)C)C1c1ccccc1[N+](=O)[O-] (stereo not given) [CP185] the result was fitted potency 12.59 µM (inhibitor, single point).
For COC(=O)C1=C(C)NC(C)=C(C(=O)OCC(C)C)C1c1ccccc1[N+](=O)[O-] (stereo not given) [CP262] the result was fitted potency 19.01 µM (inhibitor, single point).
For COC(=O)C1=C(C)NC(C)=C(C(=O)OCC(C)C)C1c1ccccc1[N+](=O)[O-] (stereo not given) [C2A] the result was fitted potency 17.78 µM (inhibitor, single point).
For COC(=O)C1=C(C)NC(C)=C(C(=O)OCC(C)C)C1c1ccccc1[N+](=O)[O-] (stereo not given) [HB3] the result was fitted potency 11.22 µM (inhibitor, single point).
For COC(=O)C1=C(C)NC(C)=C(C(=O)OCC(C)C)C1c1ccccc1[N+](=O)[O-] (stereo not given) [CP238] the result was fitted potency 14.13 µM (inhibitor, single point).
For COC(=O)C1=C(C)NC(C)=C(C(=O)OCC(C)C)C1c1ccccc1[N+](=O)[O-] (stereo not given) [Dd2] the result was fitted potency 11.22 µM (inhibitor, single point).
For COC(=O)C1=C(C)NC(C)=C(C(=O)OCC(C)C)C1c1ccccc1[N+](=O)[O-] (stereo not given) [SC27B] the result was fitted potency 10 µM (inhibitor, single point).
For CN(Cc1ccc(C(C)(C)C)cc1)Cc1cccc2ccccc12 [DIV14] the result was fitted potency 21.33 µM (inhibitor, partial curve, poor fit).
For CN(Cc1ccc(C(C)(C)C)cc1)Cc1cccc2ccccc12 [ATS95] the result was fitted potency 14.13 µM (inhibitor, single point).
For CN(Cc1ccc(C(C)(C)C)cc1)Cc1cccc2ccccc12 [P93_24] the result was fitted potency 19.95 µM (inhibitor, single point).
For CN(Cc1ccc(C(C)(C)C)cc1)Cc1cccc2ccccc12 [ICS] the result was fitted potency 17.78 µM (inhibitor, single point).
For CN(Cc1ccc(C(C)(C)C)cc1)Cc1cccc2ccccc12 [Dd2] the result was fitted potency 17.78 µM (inhibitor, single point).
For CN(Cc1ccc(C(C)(C)C)cc1)Cc1cccc2ccccc12 [TAB165] the result was fitted potency 17.78 µM (inhibitor, single point).

2 of the entries, repeated:

- COC(=O)C1=C(C)NC(C)=C(C(=O)OCC(C)C)C1c1ccccc1[N+](=O)[O-] (stereo not given) [CP252] | fitted potency 17.78 µM (inhibitor, single point)
- COC(=O)C1=C(C)NC(C)=C(C(=O)OCC(C)C)C1c1ccccc1[N+](=O)[O-] (stereo not given) [CP262] | fitted potency 19.01 µM (inhibitor, single point)

Source: PubChem BioAssay AID504749 (NCATS, 2011).